Experiment: Sweetness versus sucrose

SMILES: OC[C@H]1O[C@H](O[C@H]2O[C@H](CO)[C@@H](O[C@H]3O[C@H](CO)[C@@H](O)[C@H](O)[C@H]3O)[C@H](O)[C@H]2O)[C@H](O)[C@@H](O)[C@@H]1O [maltosyl glucoside, O-α-D-glucopyranosyl-(→4)-α-D-glucopyranosyl α-D-glucopyranoside]
- equivalent aqueous sucrose solution concentration (25% aqueous solution of maltosyl glucoside): 10%
- sweetening power of sucrose (as anhydride, relative to sucrose): about 40%
